Source: patent US10781171B2 (Epics Therapeutics, priority 2009, dated 2020)
At least one structure is not confirmed: it was looked up by name or label, or the drawing left a doubt. Some compounds share one wording; it may come from a single statement.

What follows are compounds tested on adipocytes from normal rat (assay: Lipolysis assay in isolated adipocytes (ex vivo)). Conditions: compound at 30 μM.
Type: cell-based

| Structure (SMILES) | inhibition of isoprenaline-induced lipolysis |
| --- | --- |
| Cc1ccccc1-c1ccc(C(=O)N2[C@@H](c3ccccc3Cl)CC[C@H]2C(=O)O)cc1 [Compound 2, (2S,5R)-5-(2-chlorophenyl)-1-(2′-methyl-[1,1′-biphenyl]-4-carbonyl)pyrrolidine-2-carboxylic acid] | inhibit isoprenaline-induced lipolysis |
| O=C(O)[C@@H]1CC[C@H](c2ccccc2Cl)N1C(=O)c1ccc(-c2ccccc2F)cc1 [Compound 4, (2S,5R)-5-(2-chlorophenyl)-1-(2′-fluoro-[1,1′-biphenyl]-4-carbonyl)pyrrolidine-2-carboxylic acid] | inhibit isoprenaline-induced lipolysis |
| Cc1ccc(-c2ccc(C(=O)N3[C@@H](c4ccccc4Cl)CC[C@H]3C(=O)O)cc2)cc1 [Compound 5] | inhibit isoprenaline-induced lipolysis |
| O=C(O)[C@@H]1CC[C@H](c2ccccc2Cl)N1C(=O)c1ccc(-c2ccccc2)cc1 [Compound 8, (2S,5R)-1-([1,1′-biphenyl]-4-carbonyl)-5-(2-chlorophenyl)pyrrolidine-2-carboxylic acid] | inhibit isoprenaline-induced lipolysis |
| O=C(O)[C@@H]1CC[C@H](c2ccccc2Cl)N1C(=O)c1ccc(-c2cccc(F)c2)cc1 [Compound 10, (2S,5R)-5-(2-chlorophenyl)-1-(3′-fluoro-[1,1′-biphenyl]-4-carbonyl)pyrrolidine-2-carboxylic acid] | inhibit isoprenaline-induced lipolysis |
| Cc1cccc(-c2ccc(C(=O)N3[C@@H](c4ccccc4Cl)CC[C@H]3C(=O)O)cc2)c1 [Compound 11, (2S,5R)-5-(2-chlorophenyl)-1-(3′-methyl-[1,1′-biphenyl]-4-carbonyl)pyrrolidine-2-carboxylic acid] | inhibit isoprenaline-induced lipolysis |
| COc1cccc(-c2ccc(C(=O)N3[C@@H](c4ccccc4Cl)CC[C@H]3C(=O)O)cc2)c1 [Compound 13, (2S,5R)-5-(2-chlorophenyl)-1-(3′-methoxy-[1,1′-biphenyl]-4-carbonyl)pyrrolidine-2-carboxylic acid] | inhibit isoprenaline-induced lipolysis |
